Assay results taken from doi:10.1101/2021.11.29.470395.
Read-outs that look alike come from different tables or passages of the source. No constants are given. Whether binding was seen depends on the method and setting. Some results given as binding are weak or reduced against the parent protein; the word gives no strength.

Tests used:
[1] = target: nucleotide-devoid, full-length FtsZ from M. jannaschii (Methanocaldococcus jannaschii) (UniProt Q57816); experiment: right angle light scattering at 350 nm
[2] = target: nucleotide-devoid, full-length FtsZ from M. jannaschii (Methanocaldococcus jannaschii) (UniProt Q57816); experiment: right angle light scattering at 350 nm; remark: listed apart in the source

- binding [1]: no binding (condition: with 20 mM EDTA)
- binding [2]: binds
B1: nucleotide-devoid, full-length FtsZ from M. jannaschii (protein, UniProt Q57816 1-364)
chain: MKFLKNVLEEGSKLEEFNELELSPEDKELLEYLQQTKAKITVVGCGGAGNNTITRLKMEGIEGAKTVAINTDAQQLIRTKADKKILIGKKLTRGLGAGGNPKIGEEAAKESAEEIKAAIQDSDMVFITCGLGGGTGTGSAPVVAEISKKIGALTVAVVTLPFVMEGKVRMKNAMEGLERLKQHTDTLVVIPNEKLFEIVPNMPLKLAFKVADEVLINAVKGLVELITKDGLINVDFADVKAVMNNGGLAMIGIGESDSEKRAKEAVSMALNSPLLDVDIDGATGALIHVMGPEDLTLEEAREVVATVSSRLDPNATIIWGATIDENLENTVRVLLVITGVQSRIEFTDTGLKRKKLELTGIPKI
